Experimental data reported in US7087661B1, “Safe and effective biofilm inhibitory compounds and health-related uses thereof” (Cernofina, LLC, priority 1998, dated 2006).
For at least one compound, name, drawing or mass did not settle the structure.

System: polyclonal antibodies specific for zosteric acid
Test: Preliminary testing of anti-zosteric acid polyclonal antibodies for cross reactivity
Format: binding
Source text: To investigate the mechanism behind the AF activity of sulfate esters, polyclonal antibodies specific for the sulfate ester zosteric acid were generated (BAbCo, Berkeley, Calif.). […] These antibodies were then used to investigate whether the sulfate ester AF agent zosteric acid directly binds fouling organisms.

For `O=C(O)/C=C/c1ccc(O)cc1` [coumaric acid, reference compound], the “cross reactivity with antibodies specific for zosteric acid” value was “no cross reactivity”.
